56 compounds from PubChem BioAssay AID1487 (National Center for Advancing Translational Sciences (NCATS), 2009) can be followed below.

This is one part of the list. The main result of the screen is listed elsewhere. These columns were measured beside it and carry no call. Most of these compounds were active or inconclusive in the main read-out, so they are no random draw. The note in brackets gives the kind of curve behind each potency; many fits are weak.

The nature of this experiment: qHTS Assay for Modulators of Lamin A Splicing. Conditions: HeLa LMNA splicing GFP/RFP minigene ratio, 48 h. The method, boiled down: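 Read-out is the ratio of GFP to DsRed2 object intensity, acquired by 488 nm laser-scanning cytometry on HeLa lamin A-EGFP minigene reporter cells. Compound incubation 48 hrs at 37 °C in Opti-MEM with 2% FBS; DMSO 0.5% final.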
In general terms: qHTS replaces the single test concentration by a dilution series.

[1] abbreviates: measured here: GFP splicing reporter channel.
Setting [2] is: measured here: RFP viability control channel.

Usually AC50 stands for the concentration giving half of the maximal activity seen. Take `CC(=O)/C=C/c1ccc2ccccc2n1`: the AC50 was 5.62 µM [falling, single point] under setting [1] and 1.41 µM [falling, single point] under setting [2]. As to `CCc1ccccc1NC(=O)CCC(=O)OCC(=O)c1ccc(-c2ccccc2)cc1`, the AC50 reads like this: under setting [1], 0.0355 µM [rising, full curve, poor fit]; under setting [2], 0.126 µM [rising, full curve]. In the case of `Oc1ccccc1C1=Nc2ncnn2C(c2ccccc2)C1` (centres undefined), the concentration at half-maximal activity (AC50) under setting [1] was 17.8 µM [rising, single point] and the AC50 under setting [2] is 22.4 µM [rising, single point]. For `C=CCNC(=O)c1ccccc1NC(=O)c1ccc(Cl)c(S(=O)(=O)Nc2cccc(C)c2C)c1`, under setting [2], the concentration at half-maximal activity (AC50) was 17.8 µM [rising, partial curve, poor fit].

Take `CC1=CC(=O)C=C(C)C1=NOc1ccccc1[N+](=O)[O-]`: the AC50 is 12.6 µM [rising, single point] under setting [1] and 11.2 µM [rising, single point] under setting [2]. For `CC(C)c1ccc(CNc2nc3nc4c(c(=O)n3[nH]2)CCC4)cc1`, the AC50 under setting [2] is 3.16 µM [rising, partial curve, poor fit]. For the compound `CC(=O)c1ccc(NC(=S)NCc2ccc(Cl)cc2Cl)cc1`, the AC50 was 12.6 µM [rising, single point] under setting [1] and 11.2 µM [rising, partial curve] under setting [2]. As to `COc1ccc(N)c2c1OCCC2=O`, under setting [2], the AC50 is 0.126 µM [rising, full curve]. As to `CCCS(=O)(=O)N1CCC(C(=O)N2CCOCC2)CC1`, the AC50 is, setting by setting: under setting [1], 0.794 µM [falling, full curve, poor fit]; under setting [2], 0.562 µM [falling, full curve, poor fit]. As to `NC(=O)CNCCC(c1ccccc1)c1ccccc1`, the AC50 under setting [1] is 5.62 µM [falling, partial curve, poor fit]. Take `COc1ccc(-c2nc3cnc(N4CCN(C)CC4)nc3n(Cc3cccs3)c2=O)cc1`: under setting [2], the AC50 is 15.8 µM [falling, partial curve, poor fit]. The same measure, in the same setting: then `CCN(CC)S(=O)(=O)c1ccc(Oc2ccc(S(=O)(=O)N(CC)CC)cc2)cc1`, with 2.51 µM [rising, full curve]. As to `COc1ccc(C2CC(c3ccco3)n3ncnc3N2)cc1` (centres undefined), the AC50 under setting [1] is 35.5 µM [falling, single point]. As to `O=C1/C(=C/c2ccccc2O)SC(=S)N1Cc1cccnc1`, the AC50 under setting [1] is 11.2 µM [falling, partial curve, poor fit].

As to `O=C(/C=C/c1ccccc1)NC(NC(=S)Nc1cccc(Cl)c1)C(Cl)(Cl)Cl` (centres undefined), under setting [2], the AC50 is 8.91 µM [rising, partial curve]. As for `CCCCCN(CCCCC)C(=O)[C@H](CCC(=O)O)NC(=O)c1ccc(Cl)c(Cl)c1`, the AC50 runs as follows: under setting [1], 1.78 µM [falling, single point]; under setting [2], 3.16 µM [falling, single point]. For the compound `CCCc1nc2ccccc2c(C(=O)OC(C)C(=O)NCc2ccc3c(c2)OCO3)c1CC` (centres undefined), the AC50 runs as follows: under setting [1], 17.8 µM [rising, partial curve]; under setting [2], 22.4 µM [rising, partial curve]. With `N#CC1=C(N)NC(SCc2ccccc2)=C(C#N)C12CCCC2`, the concentration at half-maximal activity (AC50) is 0.0251 µM [rising, full curve, poor fit] under setting [1] and 25.1 µM [rising, partial curve, poor fit] under setting [2]. `CCn1c([N+](=O)[O-])nc2c1c(=O)[nH]c(=O)n2C`: the AC50 under setting [2] was 35.5 µM [falling, single point]. The same measure, in the same setting: the figure for `Cc1nn(Cc2ccc(Cl)cc2Cl)c(C)c1NC(=O)c1nc2n(n1)C(C(F)F)CC(C)N2` (centres undefined) is 5.62 µM [rising, single point]. For the compound `CCc1c(C)[nH]c2c1C(=O)C(CN1CCOCC1)CC2` (centres undefined), the AC50 by setting is: under setting [1], 5.62 µM [falling, partial curve, poor fit]; under setting [2], 6.31 µM [falling, single point]. For the compound `O=C(COc1ccc(Br)cc1)N1CCN(c2ccc([N+](=O)[O-])c(N3CCCCC3)c2)CC1`, under setting [2], the AC50 was 25.1 µM [rising, partial curve, poor fit]. As to `CCc1cccc(CC)c1NC(=O)CN1C2CCCC1CC(NC(=O)Nc1cccc(OC)c1)C2` (centres undefined), the concentration at half-maximal activity (AC50) under setting [1] was 0.708 µM [falling, partial curve, poor fit].

Turning to `O=C1N/C(=C/c2ccc(N3CCOCC3)o2)C(=O)N1c1ccccc1`, the AC50 under setting [1] was 35.5 µM [falling, single point]. Take `COc1ccc(NC(=O)CSc2nnc(Cn3c(=O)sc4ccccc43)n2C)c(OC)c1`: under setting [2], the AC50 is 35.5 µM [rising, single point]. Still for that read-out and setting: the figure for `COc1ccc(OCCOC(=O)Nc2ccccc2)cc1` is 14.1 µM [rising, single point]; for `O=C(CSCSCC(=O)Nc1ccc2c(c1)OCO2)Nc1ccc2c(c1)OCO2` it is 10 µM [rising, single point].

As for `Cc1ccc(Cn2ccnc2SCC(=O)Nc2nnc(C)s2)cc1`, under setting [2], the AC50 is 1.78 µM [rising, partial curve]. The same measure, in the same setting: then `O=C1NN(c2ccccc2)C(=O)/C1=C/c1ccc(Sc2cccc3ccccc23)o1`, with 25.1 µM [rising, partial curve].

On to `COc1ccc(N2C(=O)CN(Cc3ccc(OC)c(OC)c3)C2=S)cc1`, for which the AC50 under setting [1] is 0.0708 µM [rising, full curve, poor fit].

Take `C/C(=N\NC(=O)CNC(=O)C(c1ccccc1)c1ccccc1)c1ccc(C)cc1`: the AC50 under setting [2] is 0.794 µM [rising, full curve, poor fit]. On to `CCc1ccccc1NC(=O)CN1C(=O)CCSc2ccc(S(=O)(=O)N3CCCC3)cc21`, for which the AC50 under setting [1] is 0.00316 µM [falling, full curve, poor fit]. As to `O=C(c1sc2cc(F)ccc2c1Cl)N1CCN(c2ccccc2)CC1`, the AC50 was 31.6 µM [rising, single point] under setting [1] and 35.5 µM [rising, single point] under setting [2]. Take `O=C(NCCCN1CCCC1=O)c1cccc(Oc2ccccc2)c1`: under setting [2], the AC50 is 0.0158 µM [rising, full curve, poor fit]. For `CCc1ccccc1NC(=O)C(C)n1c(=O)cc(C)c2c(C)nn(-c3ccccc3)c21` (centres undefined), the concentration at half-maximal activity (AC50) under setting [1] was 0.01 µM [falling, full curve, poor fit].

Take `O=C(NCC1([N+](=O)[O-])CN(C(=O)c2ccccc2)CN(C(=O)c2ccccc2)C1)c1ccccc1`: under setting [1], the concentration at half-maximal activity (AC50) is 7.94 µM [falling, partial curve].

As to `Cc1ccc(-n2nnnc2C(Cl)c2nnnn2-c2ccc(C)cc2)cc1`, the AC50 under setting [2] is 12.6 µM [rising, single point]. With `Cc1nn2c(COc3ccc(NC(=O)c4ccccc4)cc3)nnc2c2ccccc12`, the half-maximal activity concentration (AC50) under setting [1] is 0.141 µM [falling, partial curve, poor fit].

As for `O=C(CN1CCCCC1)NN(Cc1ccccc1)c1ccccc1`, the AC50 under setting [2] was 0.02 µM [rising, full curve, poor fit].

On to `O=C(C/C=N\OCc1ccc(Cl)cc1Cl)Nc1ccccc1`, for which, under setting [1], the AC50 is 39.8 µM [falling, partial curve, poor fit].

For the compound `COc1ccccc1NC(=O)c1c(Nc2ccccc2C)sc(C(=O)Nc2cccc(Cl)c2)c1N`, under setting [1], the AC50 was 3.55 µM [falling, partial curve]. Consider `Cc1ccc2c(CN3CCN(S(=O)(=O)c4ccc5c(c4)OCCO5)CC3)cc(=O)oc2c1C`, for which the AC50 runs as follows: under setting [1], 7.08 µM [rising, full curve, poor fit]; under setting [2], 6.31 µM [rising, full curve]. On to `Cc1c(Cl)cccc1NC(=O)CCCn1nc([N+](=O)[O-])cc1C`, for which the concentration at half-maximal activity (AC50) under setting [1] is 10 µM [falling, partial curve] and the AC50 under setting [2] is 10 µM [falling, partial curve].

As to `O=S(=O)(Nc1ncnc2sc3c(c12)CCC3)c1cc(F)ccc1F`, the AC50 under setting [2] was 0.2 µM [falling, full curve, poor fit].

Take `CC1CCCCN1C(=S)Nc1ccc(OC(F)F)cc1` (centres undefined): the AC50 by setting is: under setting [1], 17.8 µM [rising, single point]; under setting [2], 35.5 µM [rising, single point]. As to `Cc1ccc([N+](=O)[O-])cc1NC(=O)C1CCN(S(C)(=O)=O)CC1`, the AC50 under setting [2] is 0.00501 µM [falling, full curve, poor fit]. `C#CCOCCOCCOCCNc1nc(N2CCOCC2)nc(N2CCN(C(=O)Cn3cc(CCCN=C(N)N)nn3)CC2)n1`: the concentration at half-maximal activity (AC50) reads like this: under setting [1], 1.12 µM [falling, full curve, poor fit]; under setting [2], 0.178 µM [falling, full curve]. For `O=C1N(CN2CCN(Cc3ccccc3)CC2)c2ccccc2C12OCCCO2`, the half-maximal activity concentration (AC50) under setting [2] was 2.24 µM [falling, partial curve, poor fit]. Same read-out and setting: the figure for `COc1cc(-c2n[nH]c(=S)n2-c2cccc(C(F)(F)F)c2)cc(OC)c1OC` is 35.5 µM [rising, single point]. On the same count and under the same terms, the figure for `CCN(CC)c1ccc(/C=N/NC(=S)NCc2ccc(OC)cc2)cc1` is 11.2 µM [rising, partial curve]; for `CCCCOc1ccc(CONS(=O)(=O)c2ccc(NC(C)=O)cc2)cc1Cl` it is 22.4 µM [rising, partial curve]. `Nc1ncnc2nc(SCc3ccccc3)[nH]c12`: the AC50 is 0.00501 µM [rising, full curve, poor fit] under setting [1] and 0.00501 µM [rising, full curve, poor fit] under setting [2]. As for `O=C(c1cccc(C(F)(F)F)c1)N1CCCCCC1`, under setting [2], the AC50 was 22.4 µM [rising, partial curve, poor fit]. Still for that read-out and setting: then `COc1ccc(-c2nnc(SCC(=O)Nc3ccccc3)n2C)cc1`, with 0.631 µM [rising, partial curve].

For the compound `CC1(C)Cc2c(cnn2-c2ccccc2)-c2c1c1ccccc1n2CC(O)CBr` (centres undefined), the AC50 under setting [1] is 17.8 µM [rising, single point] and the AC50 under setting [2] was 14.1 µM [rising, partial curve]. As to `Cc1ccc(C(=O)CSc2nc3c([nH]2)c(=O)n(C)c(=O)n3C)cc1`, the AC50 is, setting by setting: under setting [1], 0.00631 µM [rising, full curve, poor fit]; under setting [2], 0.00355 µM [rising, full curve].
